Results taken from US9492508B2, “Parathyroid hormone analogs and uses thereof” (The General Hospital Corporation, priority 2010, dated 2016).
Part of at least one peptide drawing is inferred or uncertain, most often the ends.

Legend:
MC3T3-E1 cells = assay: cAMP RIA in intact MC3T3-E1 cells; assay type: cell-based, mouse; conditions: 30 min, room temperature, IBMX
Experimental: cAMP stimulating activity of these polypeptides was also assessed, using two different methods: a radioimmunoassay (RIA; FIG. 2) and a cAMP responsive element fused to a luciferase gene (FIG. 3). Briefly, the RIA cAMP assays were performed in intact MC3T3-E1 cells, a mouse pre-osteoblastic cell line, in 96-well plates, as described by Okazaki et al. (Proc Natl Acad Sci USA 105:16525-30, 2008). […] The cAMP contents of the HCl lysates were then determined by RIA. Data are means of six experiments, each performed in duplicate. Curves were fit to the data using Graph-Pad Prism 4.0.

[1] = Hypercalcemic assay in cynomolgus monkeys (serum and urinary calcium and phosphate); assay type: in vivo, cynomolgus monkey; conditions: 10 nmol/kg subcutaneous, FIG. 12C
Experimental: The effects of the SP-PTH (SEQ ID NO:11) and SP-PTH-AAK (SEQ ID NO:4) (“SP-AAK”) on serum and urinary calcium and phosphate levels were tested in cynomolgus monkeys. Briefly, three- or four-year-old, male cynomolgus monkeys (HAMRI Co., Ltd., Ibaraki, Japan) were measured for their body weight. Blood was collected into tubes. Monkeys received intravenous or subcutaneous administration of each polypeptide at a dose of 0.3 ml/kg. Polypeptide concentrations in stock solution were adjusted by dilution with 25 mmol/L phosphate-citrate buffer/100 mmol/L NaCl/0.05% Tween 80 (pH.5.0) (PC-buffer). All polypeptides were allowed to stand on ice immediately before administration. Polypeptides were administered to groups of three monkeys each respectively. At 1, 2, 4, and 8 hours after administration, blood was collected by saphenous vein to monitor the time course of calcium and phosphorus levels (FIG. 11A).
Similar experiments were performed using subcutaneous injection of the polypeptides using two different doses (2.5 nmol/kg or 10 nmol/kg; FIG. 14). […] Reductions in serum inorganic phosphate were also observed (FIGS. 15B and 15C). […] Urine was collected in 24-hour intervals prior to injection (T=0) and at times thereafter and assessed for Ca (FIGS. 15E and 15G), Pi (FIGS. 15F and 15H) and creatinine; [Ca] and [PI] are expressed as ratios to [creatinine]. […]

PD PTH receptor = target: T1, PD PTH receptor (Mus musculus, UniProt P41593, S489A/S491A/S492A/S493A/S495A/S501A/S504A); assay: Blood calcium and cAMP in knock-in mice with phosphorylation-deficient (PD) PTH receptor vs wild-type; assay type: in vivo
T1 construct: endogenous in cells; host or cells: knock-in mice (in vivo)
T1 sequence (P41593 27-591 S489A/S491A/S492A/S493A/S495A/S501A/S504A): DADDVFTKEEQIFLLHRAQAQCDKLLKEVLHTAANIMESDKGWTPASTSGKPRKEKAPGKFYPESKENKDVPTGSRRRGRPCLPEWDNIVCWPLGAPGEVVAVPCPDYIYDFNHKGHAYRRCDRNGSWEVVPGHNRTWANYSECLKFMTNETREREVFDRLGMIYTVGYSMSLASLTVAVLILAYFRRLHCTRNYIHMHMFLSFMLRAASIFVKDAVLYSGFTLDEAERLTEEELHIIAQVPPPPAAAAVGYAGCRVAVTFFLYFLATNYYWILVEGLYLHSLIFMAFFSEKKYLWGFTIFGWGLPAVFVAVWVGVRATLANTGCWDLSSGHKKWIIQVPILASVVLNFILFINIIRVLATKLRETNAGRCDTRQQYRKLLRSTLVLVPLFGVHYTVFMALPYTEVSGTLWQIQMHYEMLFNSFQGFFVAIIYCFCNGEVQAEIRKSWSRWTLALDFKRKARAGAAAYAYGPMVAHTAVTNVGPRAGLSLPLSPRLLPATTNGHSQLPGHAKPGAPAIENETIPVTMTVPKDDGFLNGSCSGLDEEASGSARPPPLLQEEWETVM
Experimental: The activity of SP-PTH-AAK (SEQ ID NO:4) was tested in “knock-in” mice that express a PD PTH receptor in place of the wild-type PTH receptor (Bounoutas et al., Endocrinology 147: 4674, 2006).
Blood cAMP levels were also compared between the two types of mice.

With `CC[C@H](C)[C@H](NC(=O)[C@H](CCC(=O)O)NC(=O)[C@H](CO)NC(=O)[C@@H](NC(=O)[C@@H](N)CO)C(C)C)C(=O)N[C@@H](CCC(N)=O)C(=O)N[C@@H](CC(C)C)C(=O)N[C@@H](CCSC)C(=O)N[C@@H](Cc1cnc[nH]1)C(=O)N[C@@H](CC(N)=O)C(=O)N[C@@H](CC(C)C)C(=O)NCC(=O)N[C@@H](CCCCN)C(=O)N[C@@H](Cc1cnc[nH]1)C(=O)N[C@@H](CC(C)C)C(=O)N[C@@H](CC(N)=O)C(=O)N[C@@H](CO)C(=O)N[C@@H](CCSC)C(=O)N[C@@H](CCC(=O)O)C(=O)N[C@@H](CCCNC(=N)N)C(=O)N[C@H](C(=O)N[C@@H](CCC(=O)O)C(=O)N[C@@H](Cc1c[nH]c2ccccc12)C(=O)N[C@@H](CC(C)C)C(=O)N[C@@H](CCCNC(=N)N)C(=O)N[C@@H](CCCCN)C(=O)N[C@@H](CCCCN)C(=O)N[C@@H](CC(C)C)C(=O)N[C@@H](CCC(N)=O)C(=O)N[C@@H](CC(=O)O)C(=O)N[C@H](C(=O)N[C@@H](Cc1cnc[nH]1)C(=O)N[C@@H](CC(N)=O)C(=O)N[C@@H](Cc1ccccc1)C(=O)O)C(C)C)C(C)C` [PTH(1-34), hPTH(1-34)OH, reference compound] as the compound, how does the EC50 (MC3T3-E1 cells) read?
Its EC50 is 0.563 nM.

What about the “calcemic effect (serum calcium)” value [1] of the same compound?
Its value is “brief calcemic effect”.

What about the “increases in blood calcium levels in PD mice as compared to wild-type mice” value (PD PTH receptor; FIGS. 17A, 17B) of the same compound?
Its value is “either reduced or eliminated”.

What about the “blood cAMP levels in PD mice as compared to wild-type mice” value (PD PTH receptor; FIGS. 18A, 18B) of the same compound?
The value was “increased in magnitude and prolonged in duration”.
